Measured values published in publication PMC12564946 (Marine Drugs, 2025).
HELM strings list residues between dots; [ac] is acetyl, [am] amide, other brackets name non-standard units.

Assay: peptide made by a vendor
Conditions: whole synthesis

| Substance | purity (crude or final not stated) [%] |
| --- | --- |
| FITC-labeled QLNWD | 98.56 |
| PEPTIDE1{Q.L.N.W.D}$$$$V2.0 | 98.46 |
